No constants are given. Whether binding was seen depends on the method and setting. For part of these data: In cells and extracts the contact can be indirect. Some entries that bind do so weakly or less than the wild type. For part of these data: Where a sequence is shown, tags or fusion partners need not be part of it.
Tests used:
[1] = molecular target: T1, T7-ORCA (full-length) (human) (UniProt Q9UFC0); test: co-IP; transient co-transfection in U2OS; IP buffer 50 mM Tris pH 7.4, 150 mM NaCl, 10% glycerol, 0.1% NP-40, 1 mM DTT; antibody-conjugated agarose (ORCA, T7 or HA antibody) overnight; immunoblot; for G9a-Suv39H1 also in control and ORCA siRNA cells
T1 sequence: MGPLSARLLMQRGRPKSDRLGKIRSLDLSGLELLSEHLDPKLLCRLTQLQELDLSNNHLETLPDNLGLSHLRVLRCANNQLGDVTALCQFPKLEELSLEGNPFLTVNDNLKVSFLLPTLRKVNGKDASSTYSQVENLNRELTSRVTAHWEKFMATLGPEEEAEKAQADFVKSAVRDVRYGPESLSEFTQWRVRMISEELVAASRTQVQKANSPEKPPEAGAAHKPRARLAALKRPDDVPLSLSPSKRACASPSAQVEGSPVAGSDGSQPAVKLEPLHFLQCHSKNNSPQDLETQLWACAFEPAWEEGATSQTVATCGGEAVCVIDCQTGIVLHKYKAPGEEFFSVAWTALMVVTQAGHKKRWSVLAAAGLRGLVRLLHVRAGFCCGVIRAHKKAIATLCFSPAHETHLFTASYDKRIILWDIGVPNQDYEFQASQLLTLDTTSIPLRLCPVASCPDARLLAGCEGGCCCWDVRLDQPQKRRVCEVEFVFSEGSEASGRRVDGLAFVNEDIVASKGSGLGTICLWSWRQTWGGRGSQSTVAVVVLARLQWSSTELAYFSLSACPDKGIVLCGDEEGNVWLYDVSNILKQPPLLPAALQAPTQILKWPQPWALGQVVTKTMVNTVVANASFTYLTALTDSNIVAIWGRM

Protein sequences, listed by entry. Tags and fused reporters are not part of them. Lines headed by an entry give the natural chain unless they say otherwise; changes in a name come on top.
UniProt Q96KQ7: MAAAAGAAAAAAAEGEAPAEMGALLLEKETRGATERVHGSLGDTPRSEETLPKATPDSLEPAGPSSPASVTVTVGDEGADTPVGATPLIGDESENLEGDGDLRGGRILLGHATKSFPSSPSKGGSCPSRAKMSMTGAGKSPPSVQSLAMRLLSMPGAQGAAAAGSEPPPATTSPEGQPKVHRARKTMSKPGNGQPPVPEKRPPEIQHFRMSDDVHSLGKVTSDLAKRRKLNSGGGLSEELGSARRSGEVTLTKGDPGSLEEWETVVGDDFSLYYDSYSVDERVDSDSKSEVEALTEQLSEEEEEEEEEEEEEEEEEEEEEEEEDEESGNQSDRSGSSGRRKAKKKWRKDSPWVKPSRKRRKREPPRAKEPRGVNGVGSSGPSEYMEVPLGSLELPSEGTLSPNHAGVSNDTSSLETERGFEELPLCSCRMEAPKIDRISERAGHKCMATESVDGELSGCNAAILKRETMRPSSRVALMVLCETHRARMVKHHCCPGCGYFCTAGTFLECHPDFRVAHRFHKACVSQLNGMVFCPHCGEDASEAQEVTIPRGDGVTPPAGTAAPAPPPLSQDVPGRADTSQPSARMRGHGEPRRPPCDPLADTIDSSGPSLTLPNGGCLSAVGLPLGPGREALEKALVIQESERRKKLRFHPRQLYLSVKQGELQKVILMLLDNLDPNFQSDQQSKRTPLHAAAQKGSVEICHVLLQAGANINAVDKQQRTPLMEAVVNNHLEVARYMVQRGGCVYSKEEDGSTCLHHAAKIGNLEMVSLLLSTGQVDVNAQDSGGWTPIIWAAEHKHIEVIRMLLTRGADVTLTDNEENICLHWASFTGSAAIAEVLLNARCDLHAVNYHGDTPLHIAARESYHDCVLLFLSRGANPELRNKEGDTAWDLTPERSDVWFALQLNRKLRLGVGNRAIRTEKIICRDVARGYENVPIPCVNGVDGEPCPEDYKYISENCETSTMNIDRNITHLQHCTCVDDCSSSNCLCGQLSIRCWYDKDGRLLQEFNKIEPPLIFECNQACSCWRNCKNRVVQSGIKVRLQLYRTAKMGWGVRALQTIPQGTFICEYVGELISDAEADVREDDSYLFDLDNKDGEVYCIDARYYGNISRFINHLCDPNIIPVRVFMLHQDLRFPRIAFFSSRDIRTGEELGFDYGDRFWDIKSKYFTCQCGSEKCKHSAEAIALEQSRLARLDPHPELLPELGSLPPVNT
UniProt Q9Z148: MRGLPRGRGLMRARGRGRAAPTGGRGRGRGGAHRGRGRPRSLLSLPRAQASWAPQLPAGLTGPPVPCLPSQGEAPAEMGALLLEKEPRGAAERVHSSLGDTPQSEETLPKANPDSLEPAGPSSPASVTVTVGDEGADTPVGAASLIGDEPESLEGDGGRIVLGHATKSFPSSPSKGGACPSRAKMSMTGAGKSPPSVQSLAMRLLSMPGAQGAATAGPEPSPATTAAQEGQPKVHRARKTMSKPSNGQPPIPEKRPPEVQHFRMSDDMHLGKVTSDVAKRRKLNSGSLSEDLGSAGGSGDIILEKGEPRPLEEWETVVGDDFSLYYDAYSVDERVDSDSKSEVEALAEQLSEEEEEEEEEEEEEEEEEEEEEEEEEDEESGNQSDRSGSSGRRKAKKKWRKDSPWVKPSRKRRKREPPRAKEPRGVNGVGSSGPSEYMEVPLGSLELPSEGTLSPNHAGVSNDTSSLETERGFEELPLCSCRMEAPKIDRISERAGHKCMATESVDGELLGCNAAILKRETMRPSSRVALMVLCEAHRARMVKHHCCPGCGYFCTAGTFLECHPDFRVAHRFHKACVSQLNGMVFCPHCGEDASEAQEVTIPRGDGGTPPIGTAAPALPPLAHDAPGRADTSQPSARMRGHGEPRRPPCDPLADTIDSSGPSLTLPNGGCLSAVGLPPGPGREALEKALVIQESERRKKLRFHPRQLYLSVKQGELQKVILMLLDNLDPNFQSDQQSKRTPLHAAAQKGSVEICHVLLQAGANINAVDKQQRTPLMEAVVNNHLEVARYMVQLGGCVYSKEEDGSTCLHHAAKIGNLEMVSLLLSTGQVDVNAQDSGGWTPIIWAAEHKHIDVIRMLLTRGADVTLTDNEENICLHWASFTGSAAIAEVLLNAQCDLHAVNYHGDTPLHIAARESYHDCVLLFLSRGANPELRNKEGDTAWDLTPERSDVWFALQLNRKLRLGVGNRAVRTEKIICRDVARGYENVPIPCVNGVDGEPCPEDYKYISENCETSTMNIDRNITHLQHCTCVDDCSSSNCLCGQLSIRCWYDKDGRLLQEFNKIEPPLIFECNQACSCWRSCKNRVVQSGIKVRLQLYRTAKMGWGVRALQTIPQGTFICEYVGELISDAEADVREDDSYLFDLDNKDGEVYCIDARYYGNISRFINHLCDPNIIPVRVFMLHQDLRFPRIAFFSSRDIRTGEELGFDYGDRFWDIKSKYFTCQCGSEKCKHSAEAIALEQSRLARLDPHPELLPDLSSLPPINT

[2] = molecular target: HA-G9a (full length) (human) (UniProt Q96KQ7); test: as above
[3] = molecular target: T1, T7-ORCA (full-length) (human); test: co-IP; sequential IP from triply transfected U2OS: HA IP, HA peptide elution, then T7 antibody IP; immunoblot
[4] = molecular target: HA-G9a (full length) (human) (UniProt Q96KQ7); test: as above
[5] = molecular target: T1, T7-ORCA (full-length) (human); test: co-IP; T7 antibody IP from co-transfected cells in the presence of ethidium bromide (50 μg/ml in lysate, 80 μg/ml in washes)
[6] = molecular target: T1, T7-ORCA (full-length) (human); test: co-IP; co-IP after Benzonase treatment of the lysate (1000 U, 20 min RT); data not shown
[7] = molecular target: T2, T7-ORCA (270–647) (human) (UniProt Q9UFC0); test: co-IP; transient co-transfection in U2OS; IP buffer 50 mM Tris pH 7.4, 150 mM NaCl, 10% glycerol, 0.1% NP-40, 1 mM DTT; antibody-conjugated agarose (ORCA, T7 or HA antibody) overnight; immunoblot; for G9a-Suv39H1 also in control and ORCA siRNA cells
T2 sequence: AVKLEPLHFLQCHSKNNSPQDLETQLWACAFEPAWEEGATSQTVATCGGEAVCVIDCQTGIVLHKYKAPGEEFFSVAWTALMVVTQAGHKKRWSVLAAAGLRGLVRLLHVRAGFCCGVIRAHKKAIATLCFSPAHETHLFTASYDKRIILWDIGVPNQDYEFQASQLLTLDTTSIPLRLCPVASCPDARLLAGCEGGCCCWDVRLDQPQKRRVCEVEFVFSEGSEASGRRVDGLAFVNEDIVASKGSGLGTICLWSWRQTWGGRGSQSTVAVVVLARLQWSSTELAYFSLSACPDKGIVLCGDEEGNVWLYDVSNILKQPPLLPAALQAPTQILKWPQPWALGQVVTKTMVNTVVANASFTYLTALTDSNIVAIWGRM

[8] = molecular target: T3, T7-ORCA (128–647) (human) (UniProt Q9UFC0); test: as above
T3 sequence: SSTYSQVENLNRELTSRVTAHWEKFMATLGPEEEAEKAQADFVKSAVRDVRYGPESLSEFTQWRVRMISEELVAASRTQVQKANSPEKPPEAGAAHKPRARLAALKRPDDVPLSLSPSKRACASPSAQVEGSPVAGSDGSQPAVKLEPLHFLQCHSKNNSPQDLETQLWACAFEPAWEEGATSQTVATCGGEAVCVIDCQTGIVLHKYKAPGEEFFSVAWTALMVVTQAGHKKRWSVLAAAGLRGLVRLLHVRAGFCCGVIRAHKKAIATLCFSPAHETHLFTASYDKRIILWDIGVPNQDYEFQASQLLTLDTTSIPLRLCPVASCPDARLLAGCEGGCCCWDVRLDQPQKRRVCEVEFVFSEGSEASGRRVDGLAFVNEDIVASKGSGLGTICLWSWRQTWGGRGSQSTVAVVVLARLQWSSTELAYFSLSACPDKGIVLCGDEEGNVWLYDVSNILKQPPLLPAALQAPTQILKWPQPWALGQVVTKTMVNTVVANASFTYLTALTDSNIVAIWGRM

T7-ORCA (1–127) (human) = molecular target: T4, T7-ORCA (1–127) (human) (UniProt Q9UFC0); test: as above
T4 sequence: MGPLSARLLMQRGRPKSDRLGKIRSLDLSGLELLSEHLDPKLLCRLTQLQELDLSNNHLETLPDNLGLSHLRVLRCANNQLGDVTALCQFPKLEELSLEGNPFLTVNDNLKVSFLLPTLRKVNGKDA

T7-ORCA (1–270) (human) = molecular target: T5, T7-ORCA (1–270) (human) (UniProt Q9UFC0); test: as above
T5 sequence: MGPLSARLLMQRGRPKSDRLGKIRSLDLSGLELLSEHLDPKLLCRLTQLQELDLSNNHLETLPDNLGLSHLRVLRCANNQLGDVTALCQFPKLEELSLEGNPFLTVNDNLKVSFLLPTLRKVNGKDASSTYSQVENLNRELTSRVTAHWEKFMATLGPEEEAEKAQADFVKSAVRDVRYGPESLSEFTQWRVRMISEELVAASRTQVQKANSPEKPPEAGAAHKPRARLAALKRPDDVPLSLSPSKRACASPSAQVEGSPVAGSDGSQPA

[9] = molecular target: G9a, endogenous in U2OS (human (endogenous in U2OS)) (UniProt Q96KQ7); test: co-IP; endogenous proteins from U2OS cells; IP with ORCA antibody or G9a antibody, immunoblot; also in cells expressing HA-Suv39H1 or HA-G9a
[10] = molecular target: YFP-LacI-G9a-H1166K (mouse) (UniProt Q9Z148); test: LacI tethering to a lac operator array (CLTon locus), recruitment seen by fluorescence microscopy; U2OS 2-6-3 CLTon cells, condensed heterochromatic locus (no doxycycline); LacI fusion tethered, fluorescent partner scored at the locus

B1: Flag-Suv39H1 (enzyme, UniProt O43463 1-412)
chain: MAENLKGCSVCCKSSWNQLQDLCRLAKLSCPALGISKRNLYDFEVEYLCDYKKIREQEYYLVKWRGYPDSESTWEPRQNLKCVRILKQFHKDLERELLRRHHRSKTPRHLDPSLANYLVQKAKQRRALRRWEQELNAKRSHLGRITVENEVDLDGPPRAFVYINEYRVGEGITLNQVAVGCECQDCLWAPTGGCCPGASLHKFAYNDQGQVRLRAGLPIYECNSRCRCGYDCPNRVVQKGIRYDLCIFRTDDGRGWGVRTLEKIRKNSFVMEYVGEIITSEEAERRGQIYDRQGATYLFDLDYVEDVYTVDAAYYGNISHFVNHSCDPNLQVYNVFIDNLDERLPRIAFFATRTIRAGEELTFDYNMQVDPVDMESTRMDSNFGLAGLPGSPKKRVRIECKCGTESCRKYLF
Question: Which results are given for B1?
Answer: binding [1]: binds; binding [2]: binds; binding [3]: binds; binding [4]: binds; binding [5]: binds; binding [6]: binds

B2: HA-Suv39H1 (full length) (enzyme, UniProt O43463 1-412)
chain: MAENLKGCSVCCKSSWNQLQDLCRLAKLSCPALGISKRNLYDFEVEYLCDYKKIREQEYYLVKWRGYPDSESTWEPRQNLKCVRILKQFHKDLERELLRRHHRSKTPRHLDPSLANYLVQKAKQRRALRRWEQELNAKRSHLGRITVENEVDLDGPPRAFVYINEYRVGEGITLNQVAVGCECQDCLWAPTGGCCPGASLHKFAYNDQGQVRLRAGLPIYECNSRCRCGYDCPNRVVQKGIRYDLCIFRTDDGRGWGVRTLEKIRKNSFVMEYVGEIITSEEAERRGQIYDRQGATYLFDLDYVEDVYTVDAAYYGNISHFVNHSCDPNLQVYNVFIDNLDERLPRIAFFATRTIRAGEELTFDYNMQVDPVDMESTRMDSNFGLAGLPGSPKKRVRIECKCGTESCRKYLF
Question: What does the source list for B2?
Answer: binding [7]: binds; binding [8]: binds; binding (T7-ORCA (1–127) (human)): no binding; binding (T7-ORCA (1–270) (human)): no binding

B3: origin recognition complex-associated protein (ORCA/LRWD1), endogenous in U2OS (protein, UniProt Q9UFC0 1-647)
chain: MGPLSARLLMQRGRPKSDRLGKIRSLDLSGLELLSEHLDPKLLCRLTQLQELDLSNNHLETLPDNLGLSHLRVLRCANNQLGDVTALCQFPKLEELSLEGNPFLTVNDNLKVSFLLPTLRKVNGKDASSTYSQVENLNRELTSRVTAHWEKFMATLGPEEEAEKAQADFVKSAVRDVRYGPESLSEFTQWRVRMISEELVAASRTQVQKANSPEKPPEAGAAHKPRARLAALKRPDDVPLSLSPSKRACASPSAQVEGSPVAGSDGSQPAVKLEPLHFLQCHSKNNSPQDLETQLWACAFEPAWEEGATSQTVATCGGEAVCVIDCQTGIVLHKYKAPGEEFFSVAWTALMVVTQAGHKKRWSVLAAAGLRGLVRLLHVRAGFCCGVIRAHKKAIATLCFSPAHETHLFTASYDKRIILWDIGVPNQDYEFQASQLLTLDTTSIPLRLCPVASCPDARLLAGCEGGCCCWDVRLDQPQKRRVCEVEFVFSEGSEASGRRVDGLAFVNEDIVASKGSGLGTICLWSWRQTWGGRGSQSTVAVVVLARLQWSSTELAYFSLSACPDKGIVLCGDEEGNVWLYDVSNILKQPPLLPAALQAPTQILKWPQPWALGQVVTKTMVNTVVANASFTYLTALTDSNIVAIWGRM
Question: With B3 as the binder, how does the binding [9] read?
Answer: binds

B4: CFP-ORCA (protein, UniProt Q9UFC0 1-647)
chain: MGPLSARLLMQRGRPKSDRLGKIRSLDLSGLELLSEHLDPKLLCRLTQLQELDLSNNHLETLPDNLGLSHLRVLRCANNQLGDVTALCQFPKLEELSLEGNPFLTVNDNLKVSFLLPTLRKVNGKDASSTYSQVENLNRELTSRVTAHWEKFMATLGPEEEAEKAQADFVKSAVRDVRYGPESLSEFTQWRVRMISEELVAASRTQVQKANSPEKPPEAGAAHKPRARLAALKRPDDVPLSLSPSKRACASPSAQVEGSPVAGSDGSQPAVKLEPLHFLQCHSKNNSPQDLETQLWACAFEPAWEEGATSQTVATCGGEAVCVIDCQTGIVLHKYKAPGEEFFSVAWTALMVVTQAGHKKRWSVLAAAGLRGLVRLLHVRAGFCCGVIRAHKKAIATLCFSPAHETHLFTASYDKRIILWDIGVPNQDYEFQASQLLTLDTTSIPLRLCPVASCPDARLLAGCEGGCCCWDVRLDQPQKRRVCEVEFVFSEGSEASGRRVDGLAFVNEDIVASKGSGLGTICLWSWRQTWGGRGSQSTVAVVVLARLQWSSTELAYFSLSACPDKGIVLCGDEEGNVWLYDVSNILKQPPLLPAALQAPTQILKWPQPWALGQVVTKTMVNTVVANASFTYLTALTDSNIVAIWGRM
Question: B4 was tested. Which binding [10] did it give?
Answer: no binding
